According to doi:10.1101/2024.07.25.605061:
No constants are given. Whether binding was seen depends on the method and setting. In cells and extracts the contact can be indirect. These calls come from enrichment with a bait or labelling near it, and not all partners need be listed. Tags and fused reporters may be left off the sequences shown.

T1: EML2-FLAG (Arabidopsis thaliana) (UniProt Q9FG29)
T1 sequence: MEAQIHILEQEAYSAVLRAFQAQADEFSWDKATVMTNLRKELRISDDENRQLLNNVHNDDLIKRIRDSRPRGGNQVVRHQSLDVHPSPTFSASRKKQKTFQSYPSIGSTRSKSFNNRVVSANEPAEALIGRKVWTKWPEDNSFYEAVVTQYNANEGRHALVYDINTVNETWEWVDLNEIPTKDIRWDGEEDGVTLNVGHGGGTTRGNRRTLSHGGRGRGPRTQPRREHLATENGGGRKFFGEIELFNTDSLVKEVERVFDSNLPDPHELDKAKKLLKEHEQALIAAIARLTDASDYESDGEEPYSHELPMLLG

T2: GTE4-FLAG (Arabidopsis thaliana) (UniProt Q9LNC4)
T2 sequence: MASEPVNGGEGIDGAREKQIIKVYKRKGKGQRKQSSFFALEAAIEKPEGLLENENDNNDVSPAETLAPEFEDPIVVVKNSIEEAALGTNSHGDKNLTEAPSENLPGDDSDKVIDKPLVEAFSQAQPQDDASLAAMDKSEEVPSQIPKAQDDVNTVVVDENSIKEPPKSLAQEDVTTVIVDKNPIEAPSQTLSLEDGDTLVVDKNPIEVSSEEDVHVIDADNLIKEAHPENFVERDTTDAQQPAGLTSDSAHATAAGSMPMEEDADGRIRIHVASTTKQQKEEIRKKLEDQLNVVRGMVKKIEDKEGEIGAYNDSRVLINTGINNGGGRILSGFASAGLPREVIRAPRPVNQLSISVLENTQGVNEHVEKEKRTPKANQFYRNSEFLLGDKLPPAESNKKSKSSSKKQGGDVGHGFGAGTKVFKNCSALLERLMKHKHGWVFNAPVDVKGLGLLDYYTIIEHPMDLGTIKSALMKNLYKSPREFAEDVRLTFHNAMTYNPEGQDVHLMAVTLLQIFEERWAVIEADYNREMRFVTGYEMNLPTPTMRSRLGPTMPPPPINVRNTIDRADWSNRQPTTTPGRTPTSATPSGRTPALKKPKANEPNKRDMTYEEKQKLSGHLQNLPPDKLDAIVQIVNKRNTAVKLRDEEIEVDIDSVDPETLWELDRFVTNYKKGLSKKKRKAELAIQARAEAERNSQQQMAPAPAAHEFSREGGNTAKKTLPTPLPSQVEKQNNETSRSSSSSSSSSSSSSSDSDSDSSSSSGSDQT

B1: GTE7 (endogenous) (protein, UniProt Q7Y214 1-590)
chain: MAPAVFATLNEPSYQEQCGAVFMRKFTNQSVTENTNNLPLFNPNPNPNFERSNSSKQCDDSSEFGSYATFNLAGYTSSQLRELKKRFTSELKQIRILRERIESGTFETQQGYTIPEVPAVRSAPLNNFTGEKNDLGPKKKKQKKNVSGLKRSNQFGPSDPESEKLLAGMLNTCSQILVKLMKHKWAWVFNTPVDVVGLGLHDYHQVVKKPMDLGTVKLNLDKGFYVSPIDFATDVRLTFDNAMTYNPKGQDVYFMADKLLDHFDGMFNPAFKKFEAQQLKLTGSSSRPEPDFKPDFKQRQWNQNPPMVANPRKGTEQISIAKKLDSVKPPQPTLPPQLVEPSRVQSPSPPPPPPVIQPELPQPQPPPPQLEIEVEAPPDVSEVSKGRKGKLPKPKAKDPNKRLMTMEEKSKLGMNLQDLPPEKLGQLLQILRKRNGHLAQDGDEIELDIEAVDNETLWELDRFVTNYKKMASKIKRQGFIRNVSTPPRNMASVAEMGSAEKRTRRGDAGEEDVDIGEDIPIEDYPSVEIERDGTAVAAAASSGSSSSGSSSSSGGSSSSSDSGSGGSSSGSDSDADSVQSPFVEAKEAQC
B2: GTE8 (endogenous) (protein, UniProt Q9LK27 1-813)
chain: MVESAAFPGGYYRNTFEAPEESEGSGSSAQIDTEVTASENSSTPARKCIMLNSNDEDPYGVQRQVISLYNMSQSERKDLIYRLKLELEQTKIVLKNAELQRMNPAAVSSTSDRVGFSTGQKISSRVSNSKKPSDFAVGSGKKVRHQNGTSRGWNRGTSGKFESSKETMTSTPNITLMKQCDTLLRKLWSHPHSWVFQAPVDVVKLNIPDYLTTIKHPMDLGTVKKNLASGVYSSPHEFAADVRLTFTNAMTYNPPGHDVHIMGDILSKLFEARWKTIKKKLPPCSMQTLPAVTLEPNDERKAAISVPPAKKRKMASPVRESVPEPVKPLMTEVERHRLGRQLESLLDELPAHIIDFLKKHNSNGGEIAEDEIEIDIDVLSDEVLVTLRNLLDEYIQNKEAKQTNVEPCEIELINGSRPSNSSLQRGNEMADEYVDGNEPPISRSSSDSDSGSSEDQSDDAKPMVQGDSSKMPETANSEAQRDENTRIDDLFVGSQSTGALEQMDICSQQKLSSDESDGQHEGNILETPASSEKRYRAALLKNRFADIILKAREKPLPQNGIKGDPERLRKEREELVLQKKKEKARLQAEAEAAEDARRQAEAEAAAEAAAEAKRKRELEREAARQALLKMEKTVEINENSRFLEDLEMLSSSAPEQLPSSAEETSPERPLDALGSFNLRGSNPLEQLGLYMKQDDDEEEPEAPAVPKPDETSTERPLDALGSFKLGECNPLEQLGLYMKQDDGEEEEPEAPVVPKPNETSLERPVDAFGSFNLKGSNPLEQLGLYMKQDDDEEEPEAPAVPNLANDVEEGEID
B3: GTE9 (endogenous) (protein, UniProt Q93YS6 1-688)
chain: MTERNGGFPGDYCFEAPGGDYDEGSDSPRVSEGSNCSKRKVGETFGVSKMVLPLSGLSSSDRKELIRRLRQELEQIRVFQKNFELSRTVALTSSSASGLTRVKSFGMSRCSTGPGKTVNPISAASKPTPVTTAVMLLMKQCEALLKRLMSHQYGWVFNTPVDVVKLNILDYFNVIEHPMDLGTVKNKLTSGTYSCPSEFAADVRLTFSNAMTYNPPGNDVYVMADTLRKFFEVRWKTLEKKLSGTKVHTEPSNLDAHKEKHIVIPVPMAKKRKTTAVDCENVVDPAKRVMTDEDRLKLGKDLESLTEFPAQLINFLRDHNSNEGGIGDDEIEIDINDLSDHALFQLRDLLDEHLREIQNKKSSVEPCEIELLHGSVPGNSSMQHCDGSELDDEVVDIGENEHPTSSISPVTIEKDLVLGNSNGNSLGSVSGDPKMSSLPRASKGLGTIDLEPMLDGATSASPTRGSSVGGLDQLESASPEKISSVEADCQQDGNSAQNEKQLPPEKSYRAAILKNRFADIILKAREKPLNQNDTRDPEKLQREREELELQKKKEKARLQAEAKAAEEARRKAEAQAAAEAAAEAKRKLELEREAARQALMEMEQSVELNENAKFLEDLELLKTVDTDHLTNTIEEEDGPDVGLRSFSFGGSNPLEQLGLFMKQDEDEEEADPLTSPAPEIDIEEGEID
B4: GTE10 (endogenous) (protein, UniProt Q9FGW9 1-1061)
chain: MGKARKHSRGRPSGFVPDYMQAVEPDEFVYSERMNSEASPPLKRRRFGLNGDNNGVSKEVLSLSKMSRSERKNLVHKLKMELQQVRDLSKKIASFSSDTVLLSPYNDHSCSDGPRRPPPENFATFVGSQGKKRPPVRSDKQRNKKGPSRLNVPTSYTVASVMKECETLLNRLWSHKSGWPFRTPVDPVMLNIPDYFNVIKHPMDLGTIRSRLCKGEYSSPLDFAADVRLTFSNSIAYNPPGNQFHTMAQGISKYFESGWKSIEKKIPMSKPPVIPLTSSASLESEIPFEVAPMRKKEAAMNDNKLRVEPAKLVMTDGEKKKLGQDLMALEEDFPQKIADLLREQSGSDGQSGEGEIEIDIEALSDEILFMVRKLLDDYLREKKKSMEKSEPCEMEIVHDSGFSNSPLQPSKGDLQIDEDVDIVGGNDPSVSSHPPLKIEKDAACRNNESSSSSSSSSESGSSSSDSDSCSSSGSETDSIKASKPTSREEKKQPGVGIDKKEDDSNSEKIVVNDSLNELDQLEHTVGEKSTTMDAVVLVPDEETAPPERQISPDSPDKRYRAAFLKNRFADTIMKAREKAFTKGEKGDPEKLRIEREEFEKRLREEKERLQAEAKAAEEARRKAKAEAAEKARREREQEREAARQALQKMEKTVEINEGIRFMEDLQMLRATGTEGDQLPTSMEVMSPKFSEDMLGLGSFKMESNSNPLEHLGLYMKMDEDEDEEEDPPHFSQRKVEDNPFDRSEKQEHSPHRVEGEDQLVSGNEEPVSQEAHDNGDQEDGKPINPNEIERQLENMPEQESGVGDKEEQETEVVDMRKQENEVVDMGVEEVHPLDRSEGRTLSPHRKEREDPRASGNEESVSEKAQDYENQRDEKINQSEREEQLENVLEQESSRDDDTGEQETEVVGVGKELSLDKSEGQTLSPHREEGENQLDCGNEELVSQKTQDNGNQEDEKSINKIEGEEQLANVPEQESRVTEKEEQETGVVDLGEQKSEVVEKGVEENEAVDNGEGVQGTEVSDKGGNETVVDGNGKVETEVVDKAGQKTDLVDQGEEDIDVEID
B5: GTE11 (endogenous) (protein, UniProt Q93ZB7 1-620)
chain: MTVRNGGFPGDYNRNSFDSPGGCDDSPNASKDDETFGVPRIVLPLSDLSSSERRKWIHTLRQELEQLRSFQKSVGDLLPISKIVTSTPASNVSRPKSFGMSRCSTGPGKRVLPFTATKPEPVTTSTMLRMKQCESLLKRLMSQQHCWLFNTPVDVVKLNIPDYFTIIKHPMDLGTVKSKLTSGTYSSPSEFSADVRLTFRNAMTYNPSDNNVYRFADTLSKFFEVRWKTIEKKSSGTKSEPSNLATLAHKDIAIPEPVAKKRKMNAVKRNSLLEPAKRVMTDEDRVKLGRDLGSLTEFPVQIINFLRDHSSKEERSGDDEIEIDINDLSHDALFQLRDLFDEFLRENQKKDSNGEPCVLELLHGSGPGNSLTQHCDGSELEDEDVDIGNYEHPISHISTVRTEKDSVGGLNQMEDASRGKLSLIEGADGHQDGNSAPKEKELPPEKRYRAALLKNRFADIILKAQEITLNQNEKRDPETLQREKEELELQKKKEKARLQAEAKEAEEARRKAEAQEAKRKLELEREAARQALLEMEKSVEINENTRFLKDLELLKTVNTDQLRNLRDVGSESDGLAVFGFGGSNPLEQLGLFMKHEEDEDESDMLAFPDPGNEVEEGEID
B6: EML3 (endogenous) (protein, UniProt F4K2F0 1-397)
chain: MDYRPSDSSGTDDDLPPSHQGRYQRNARPTGNGRPSVLNSAPLSRVHNEMETQIHLIEQEAYSSILRAFKAQSDAITWEKESLITELRKELRVSDEEHRELLSRVNADEMIRRIREWRKANSLQSSVPQLVHDAPSPAVSGSRKKQKTSQSIASLAMGPPSPSLHPSMQPSSSALRRGGPPPGPKTKKPKTSMQYPSTGIAGRPQAGALTNEPGESGSYDPLVGRKVWTKWPDDNQYYEAVITDYNPVEGRHALVYDINSANETWEWVNLKEISPGDIRWEGEDPGISRKGGHPGQGRGTKTMARGGPASNAGGRGRGSMRMQQPKTQNGIGKKALGEIEILHTETLLKEVEKVFGSVNPNPAEVEKAKRVLRDHELALMDAIAKLEEISDGESGNI

Target: T1, EML2-FLAG (Arabidopsis thaliana)
Assay: affinity purification with mass spectrometry

**Q.** How did the binding turn out when B1 was run?
**A.** binds

**Q.** B2 was tested. Which binding did it give?
**A.** binds

**Q.** B3 was tested. Which binding did it give?
**A.** binds

**Q.** How did the binding turn out when B4 was run?
**A.** binds

**Q.** How did the binding turn out when B5 was run?
**A.** binds

Target: T2, GTE4-FLAG (Arabidopsis thaliana)
Assay: affinity purification with mass spectrometry

**Q.** Which binding does the source give for B6 here?
**A.** binds
